Results are given in words; binding and its absence hold for the method and conditions named. Some binding calls cover weakened binding; strength is not graded here.
Target: N-terminal fragment of MUC1 (388 amino acid residues long at the N-terminus) (human (human cervical cancer cell line SiHa)) (UniProt P15941)
Assay: Western blotting of SiHa cell extracts

Amino acid sequences for entries named in this document (tags omitted). A change or cut given only in a name is not applied to a line headed by its entry.
UniProt P15941: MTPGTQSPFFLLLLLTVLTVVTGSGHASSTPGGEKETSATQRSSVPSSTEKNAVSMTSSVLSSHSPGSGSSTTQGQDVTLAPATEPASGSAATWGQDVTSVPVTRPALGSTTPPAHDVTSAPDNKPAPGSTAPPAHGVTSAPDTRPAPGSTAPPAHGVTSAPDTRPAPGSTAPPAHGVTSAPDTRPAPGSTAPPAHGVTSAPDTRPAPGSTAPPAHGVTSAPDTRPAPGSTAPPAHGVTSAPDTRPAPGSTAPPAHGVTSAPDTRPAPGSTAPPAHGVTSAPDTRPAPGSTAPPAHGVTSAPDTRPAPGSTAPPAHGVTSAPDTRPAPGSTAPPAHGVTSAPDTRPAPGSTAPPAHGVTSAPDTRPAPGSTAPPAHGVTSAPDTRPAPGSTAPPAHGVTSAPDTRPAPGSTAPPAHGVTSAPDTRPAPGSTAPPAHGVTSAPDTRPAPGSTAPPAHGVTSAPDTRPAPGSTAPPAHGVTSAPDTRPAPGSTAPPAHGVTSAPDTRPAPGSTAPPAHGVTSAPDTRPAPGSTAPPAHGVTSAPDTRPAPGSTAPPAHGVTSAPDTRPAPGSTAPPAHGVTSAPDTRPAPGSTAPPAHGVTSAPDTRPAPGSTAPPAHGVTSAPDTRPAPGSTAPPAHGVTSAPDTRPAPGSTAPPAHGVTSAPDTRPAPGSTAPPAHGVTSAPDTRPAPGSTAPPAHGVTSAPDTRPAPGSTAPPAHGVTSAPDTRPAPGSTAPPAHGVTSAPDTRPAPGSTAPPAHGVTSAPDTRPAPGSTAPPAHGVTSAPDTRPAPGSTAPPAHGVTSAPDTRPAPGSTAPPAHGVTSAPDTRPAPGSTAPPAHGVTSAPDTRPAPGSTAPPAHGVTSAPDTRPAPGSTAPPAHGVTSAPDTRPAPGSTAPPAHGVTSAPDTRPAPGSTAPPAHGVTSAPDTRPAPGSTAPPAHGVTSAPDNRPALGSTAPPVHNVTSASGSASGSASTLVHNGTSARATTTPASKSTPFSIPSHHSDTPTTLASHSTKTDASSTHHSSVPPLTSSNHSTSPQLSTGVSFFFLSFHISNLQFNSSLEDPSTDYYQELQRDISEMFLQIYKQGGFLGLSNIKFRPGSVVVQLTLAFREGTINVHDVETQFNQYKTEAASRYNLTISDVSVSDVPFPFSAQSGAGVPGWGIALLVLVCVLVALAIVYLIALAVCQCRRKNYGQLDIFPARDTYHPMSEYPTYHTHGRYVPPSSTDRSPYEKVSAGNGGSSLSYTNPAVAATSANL

B1: anti-MUC1 monoclonal antibody (antibody, V domains shown)
VH: EVKLEESGGGLVQPGGSMKLSCVASGFSFSDYWMNWVRQSPDKGLEWISDIRLKSYNYATHYAESVKGRFTISRDDSKSGVYLQMNNLRAEDTGLYYCTFGNSFAYWGQGTLVTVSA
VL: QAVVTQESALTTSPGETVTLTCRSSTGAVTTSNYANWVQEKPDHLFTGLIGGTNNRAPGVPARFSGSLIGDKAALTITGAQTEDEAIYFCALWYSNHWVFGGGTKLTVLG
notes: also called MUC1 antibody
binding: binds
